Among the data in article PMC7349614 are binding values, retold here.

Chains of the proteins cited; added tags and fusions are not shown. Residues count along the entry.
UniProt Q15465, residues 24-462: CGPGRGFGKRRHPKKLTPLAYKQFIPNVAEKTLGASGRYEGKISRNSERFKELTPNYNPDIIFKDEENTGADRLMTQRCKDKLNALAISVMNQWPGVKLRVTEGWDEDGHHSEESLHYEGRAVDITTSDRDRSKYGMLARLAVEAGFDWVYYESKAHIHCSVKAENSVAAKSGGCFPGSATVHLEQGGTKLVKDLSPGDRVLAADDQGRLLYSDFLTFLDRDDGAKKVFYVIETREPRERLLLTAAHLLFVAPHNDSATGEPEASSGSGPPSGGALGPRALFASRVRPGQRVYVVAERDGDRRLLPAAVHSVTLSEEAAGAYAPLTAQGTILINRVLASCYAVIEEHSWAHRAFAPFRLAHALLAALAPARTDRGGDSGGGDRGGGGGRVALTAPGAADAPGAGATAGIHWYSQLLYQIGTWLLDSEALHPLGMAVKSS
UniProt Q9Y3R4: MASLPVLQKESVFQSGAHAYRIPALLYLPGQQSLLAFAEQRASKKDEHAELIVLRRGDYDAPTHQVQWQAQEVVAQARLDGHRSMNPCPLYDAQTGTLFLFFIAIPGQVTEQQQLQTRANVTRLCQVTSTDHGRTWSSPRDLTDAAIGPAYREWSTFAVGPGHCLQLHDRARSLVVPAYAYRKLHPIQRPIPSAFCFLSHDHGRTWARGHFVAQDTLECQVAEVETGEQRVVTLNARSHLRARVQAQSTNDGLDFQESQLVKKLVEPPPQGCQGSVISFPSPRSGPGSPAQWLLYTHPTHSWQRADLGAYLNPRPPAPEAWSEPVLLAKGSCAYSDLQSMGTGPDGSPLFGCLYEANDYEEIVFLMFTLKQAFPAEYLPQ

The target in this test is Sonic hedgehog (Shh), sialylated, endogenous in pancreatic cancer sphere-forming cells (human (endogenous in MIAPaCa2 and AsPC1)) (UniProt Q15465). As to the kind of experiment: co-IP; lysate (200 μg) of Neu2-overexpressed PCS (N-PCS; also Rictor + Neu2 co-overexpressed) from MIAPaCa2 and AsPC1; anti-Shh or anti-Patched1 antibody (1:100) overnight at 4 °C, protein A-Sepharose 4B 3 h, washed with PBS, blot with anti-Neu2, anti-Patched1 and anti-Shh.

No constants are given. Whether binding was seen depends on the method and setting. Binding seen in cells or lysates may run through a third protein. Some entries that bind do so weakly or less than the wild type.

With “Neu2 (cytosolic sialidase), overexpressed from PcDNA3.1-Neu2 (from UniProt Q9Y3R4 1-380) (enzyme)”, the binding result is on record as “binds”.
